Reference: article PMC11032371
Results are given in words; binding and its absence hold for the method and conditions named. Binding seen in cells or lysates may run through a third protein. Some results given as binding are weak or reduced against the parent protein; the word gives no strength.

Target: T1, endogenous FADD (mouse (endogenous in MEFs)) (UniProt Q61160)
T1 sequence: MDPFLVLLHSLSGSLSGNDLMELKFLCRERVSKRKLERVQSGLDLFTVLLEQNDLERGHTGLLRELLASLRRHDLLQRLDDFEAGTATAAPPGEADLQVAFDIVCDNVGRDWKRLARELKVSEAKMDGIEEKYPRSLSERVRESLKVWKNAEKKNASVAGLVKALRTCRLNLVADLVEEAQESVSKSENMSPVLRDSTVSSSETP
Experiment: co-IP; endogenous FADD immunoprecipitated from MEFs untreated or exposed to TNFα (10 ng/ml) and CHX (0.5 μg/ml) without or with z-VAD-fmk (20 μM) for 90 min

B1: endogenous mouse N4BP1 (protein, UniProt Q6A037 1-893)
chain: MAARVVLDEFTAPAEKAALLERSRGRIEALFGVGLAVLGALGAEEPLPARIWLQLRGAQEAVHSAKEYIKGICEPELEEKECYPKAMHCIFVGAQSLFLKSLIQDTCADLCVLDTGLLGIRGSAEAVVMARSHIQQFVKLFESNENLPSNQRESEIKREFRQFVEAHADSYTMDLLILPTSLKKELLSLTQGEESLFETDDDVITVGDVRPPEYTQSAATGPSSARDEVVVQEDSRNKARTPVSELTKHMDTVFSSSPDVLFVPVNGLSPDEDALSKDRVCHKRRSSDTEERHTKKQFSLENVPEGELLPDGKGSAGNEVIDLSDPASNSTNLSPDGKDTTEEMEYNILVNFFKTMGYSQEIVEKVIREYGPSTEPLLLLEEIEKENKRLQEDRDFPPCTVYPDASQSRNAGVGSTTNELTADSTPKKAQSHTEQSMVERFSQLPFKDSKHCTSNCKVNSFRTVPVGQKQEIWGSKQNSSCTVDLETDGHSASAASASPKDISFVSRGASGHQQRNPAFPENGFQQQTEPLLPNNTKPACEKRSGSCSSPQPKPNYPPLSPPLPLPQLLPSVTEARLGGSSDHIDSSVTGVQRFRDTLKIPYKLELKNEPGRADLKHIVIDGSNVAITHGLKKFFSCRGIAIAVEYFWKLGNRNITVFVPQWRTRRDPNITEQHFLTQLQELGILSLTPARMVFGERIASHDDRFLLHLADKTGGIIVTNDNFREFVTESVSWREIITKRLLQYTFVGDIFMVPDDPLGRNGPRLEEFLRKEAFLRHMQPLLNALPSVGTFDPGFRSPSTQVANNSHQPPPRIQTSSSPWLPQQSHFTALATLPSMQQNPPLPAQRSSAETSELREALLKIFPDSEQKLKIDQILAAHPYMKDLNALSALVLD
With B1 as the binder, how does the binding read?
The binding was “binds”.
